Reference: paper PMC9520760 (ACS Omega, 2022)

Tests used:
MCF-7 cells = assay: MTT cell proliferation assay, MCF-7; type: cell-based; settings: Homo sapiens, MCF7, 48 h, read-out: IC50 (Mean ± SEM) MCF-7
MDA-MB-231 cells = assay: MTT cell proliferation assay, MDA-MB-231; type: cell-based; settings: Homo sapiens, MDA-MB-231, 48 h, read-out: IC50 (Mean ± SEM) MDA-MB-231

Question: For `CC/C(=C(\c1ccccc1)c1ccc(OCCN(C)C)cc1)c1ccccc1` [TAM, Tamoxifen, reference compound], which IC50 (MCF-7 cells) is on record?
Answer: 12.8 ± 0.38 µM

Question: What about the IC50 (MDA-MB-231 cells) of the same compound?
Answer: 16.2 ± 0.47 µM
